Patent US20240307550A1, “MODULATION OF CD46 CELL SURFACE MARKER IN BOTH ANDROGEN RECEPTOR-POSITIVE AND NEGATIVE CANCER CELLS” (The Regents of the University of California, priority 2021, published 2024)
At least one compound was matched to its structure with a doubt left.

Assays:
CD46, mCRPC cells = experiment: CD46 cell surface expression after glucocorticoid receptor agonist or modulator, mCRPC cells; format: cell-based
[1] = system: CD46 antigen density, LNCaP-C4-2B cells; experiment: CD46 antigen density by quantitative flow cytometry, LNCaP-C4-2B cells; format: cell-based; details: 10 μM, 7 days
Excerpt: CD46 antigen density was *p<0.05; **p<0.01 (p=0.0091), Student's test, duplicates.

| Structure (SMILES) | CD46 expression (CD46, mCRPC cells; dexamethasone alone) | CD46 expression (CD46, mCRPC cells; dexamethasone in combination with enz) | CD46 antigen density [1] |
| --- | --- | --- | --- |
| C[C@@H]1C[C@H]2[C@@H]3CCC4=CC(=O)C=C[C@]4(C)[C@@]3(F)[C@@H](O)C[C@]2(C)[C@@]1(O)C(=O)CO [dexamethasone] | upregulates CD46 | upregulates CD46 |  |
| C[C@]12CC[C@H](O)CC1=CC[C@@H]1[C@@H]2CC[C@]2(C)C(c3cccnc3)=CC[C@@H]12 [abiraterone] |  |  | increased |
